Laboratory results taken from the supplement of paper PMC8256030.
Where “and” joins values, the source holds several entries; their conditions need not be identical. Equal values may be shown once. The list shows a part of the results. Repeats in this data set agree poorly, so a single value says little.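 HEK293T cells were given each compound shortly before transfection with a reporter in which red mCherry is followed by the SARS-CoV-2 frameshift element and then GFP in the −1 frame, so GFP appears only after frameshifting.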

System: HEK293T
Assay: percent viability (nuclei count) relative to control; higher = more viable cells
Conditions: 10 µM; 24 h

| Structure (SMILES) | percent viability |
| --- | --- |
| CCCCCOc1ccc(-c2ccc(-c3ccc(C(=O)N[C@H]4C[C@@H](O)[C@@H](O)NC(=O)[C@@H]5[C@@H](O)[C@@H](C)CN5C(=O)[C@H]([C@@H](C)O)NC(=O)[C@H]([C@H](O)[C@@H](O)c5ccc(O)cc5)NC(=O)[C@@H]5C[C@@H](O)CN5C(=O)[C@H]([C@@H](C)O)NC4=O)cc3)cc2)cc1 [Eraxis] | 203% |
| COc1cc(O)c(C(=O)c2ccccc2)cc1S(=O)(=O)O [sulisobenzone] | 127% |
| CCC1NC(=O)c2cc(S(N)(=O)=O)c(Cl)cc2N1 (stereo not drawn) [quinethazone] | 342% |
| CCCCCCCCCc1ccc(OCCOCCOCCOCCOCCOCCOCCOCCOCCO)cc1 | 86.4% |
| CCS(=O)(=O)CCn1c([N+](=O)[O-])cnc1C [tinidazole] | 177% and 395% |
| C#C[C@]1(OC(C)=O)CC[C@H]2[C@@H]3CCC4=C/C(=N/O)CC[C@@H]4[C@H]3CC[C@@]21CC [Ortho-Prefest] | 100% |
| C1CCC(C(CC2CCCCN2)C2CCCCC2)CC1 (stereo not drawn) [perhexiline] | 340% |
| NC(=O)CC(N)C(=O)O (stereo not drawn) | 162% |
| CCCCCCCCCCCCCCCC[N+](C)(C)CCN(Cc1ccc(OC)cc1)c1ncccn1 [tonzonium bromide] | 323% |
| O=C(O)CCCCCCCNC(=O)c1ccccc1O [salcaprozic acid] | 326% |
| Nc1c(CC(=O)O)cccc1C(=O)c1ccc(Br)cc1 [bromfenac] | 228% |
| CCn1c(=O)c2c(nc(/C=C/c3ccc(OC)c(OC)c3)n2C)n(CC)c1=O [istradefylline] | 154% |
| C=CCN1CCCC1CNC(=O)c1cc(S(N)(=O)=O)cc(OC)c1OC (stereo not drawn) [veralipride] | 72.6% |
| CN[C@H](CC(C)C)C(=O)N[C@H]1C(=O)N[C@@H](CC(N)=O)C(=O)N[C@H]2C(=O)N[C@H]3C(=O)N[C@H](C(=O)N[C@H](C(=O)O)c4cc(O)cc(O)c4-c4cc3ccc4O)[C@H](O)c3ccc(c(Cl)c3)Oc3cc2cc(c3O[C@@H]2O[C@H](CO)[C@@H](O)[C@H](O)[C@H]2O[C@H]2C[C@](C)(N)[C@H](O)[C@H](C)O2)Oc2ccc(cc2Cl)[C@H]1O [Vancocin] | 247% |
| CCCn1c(=O)c2nc(C34CC5CC(CC3C5)C4)[nH]c2n(CCC)c1=O [rolofylline] | 64.3% |
| CC(C)(Oc1ccc(Cl)cc1)C(=O)N1CSCC1C(=O)O (stereo not drawn) [timofibrate] | 128% |
| CC(C)CCCC(C)NCCC(C)C (stereo not drawn) [octamylamine] | 174% |

| Structure (SMILES) | percent viability |
| --- | --- |
| CCn1cc(C(=O)O)c(=O)c2cc(F)c(N3CCNCC3)nc21 [enoxacin] | 239% and 179% |
| O=C1OC(CN2CCOCC2)CN1/N=C/c1ccc([N+](=O)[O-])o1 (stereo not drawn) | 265% |
| CC(C)=CCOc1ccc(/C=C/C(=O)c2ccc(OCC=C(C)C)cc2OCC(=O)O)cc1 [sofalcone] | 266% |
| CCCCCCCCCCCCC[N+](C)(C)Cc1ccccc1 | 197% |
| CN(CCOc1ccc(CC2SC(=O)NC2=O)cc1)c1ccccn1 (stereo not drawn) [Rosiglitazone] | 230% |
| CC(C)OC(=O)C(C(=O)OC(C)C)=C1SC=CS1 [malotilate] | 260% |
| CC(C)NCC(O)COc1ccccc1C1CC1 (stereo not drawn) [procinolol] | 330% |
| CC1(C)O[C@@H]2C[C@H]3[C@@H]4C[C@H](F)C5=CC(=O)CC[C@]5(C)[C@H]4[C@@H](O)C[C@]3(C)[C@]2(C(=O)CO)O1 [fludroxycortide] | 293% and 221% |
| O=C(O)CCNC(=O)c1ccc(/N=N/c2ccc(O)c(C(=O)O)c2)cc1 [balsalazide] | 218% |
| NC12CC3CC(CC(C3)C1)C2 [amantadine] | 116% |
| Cc1ccc(C(=O)N(CCCN)[C@@H](c2nc3cc(Cl)ccc3c(=O)n2Cc2ccccc2)C(C)C)cc1 [ispinesib] | 14.2% |
| Cn1c(=O)c2nc[nH]c2n(C)c1=O | 226% |
| CO[C@H]1C[C@H](O[C@H]2[C@H](C)[C@@H](O[C@@H]3O[C@H](C)C[C@H](N(C)C)[C@H]3OC(C)=O)[C@@H](C)C[C@@]3(CO3)C(=O)[C@H](C)[C@@H](OC(C)=O)[C@@H](C)[C@@H](C)OC(=O)[C@@H]2C)O[C@@H](C)[C@@H]1OC(C)=O [troleandomycin] | 181% |
| OC(C1=NCCN1)(c1ccc(Cl)cc1)c1ccccn1 (stereo not drawn) [dazadrol] | 143% |
| CCCN1CCCC[C@H]1C(=O)Nc1c(C)cccc1C [ropivacaine] | 248% |
| CCOc1nc2cccc(C(=O)O)c2n1Cc1ccc(-c2ccccc2-c2nnn[nH]2)cc1 [candesartan] | 233% |

A run of entries taken from the entries so far, as a working copy:

| Structure (SMILES) | percent viability |
| --- | --- |
| CN[C@H](CC(C)C)C(=O)N[C@H]1C(=O)N[C@@H](CC(N)=O)C(=O)N[C@H]2C(=O)N[C@H]3C(=O)N[C@H](C(=O)N[C@H](C(=O)O)c4cc(O)cc(O)c4-c4cc3ccc4O)[C@H](O)c3ccc(c(Cl)c3)Oc3cc2cc(c3O[C@@H]2O[C@H](CO)[C@@H](O)[C@H](O)[C@H]2O[C@H]2C[C@](C)(N)[C@H](O)[C@H](C)O2)Oc2ccc(cc2Cl)[C@H]1O [Vancocin] | 247% |
| CCCn1c(=O)c2nc(C34CC5CC(CC3C5)C4)[nH]c2n(CCC)c1=O [rolofylline] | 64.3% |
